Data on two compounds can be found in patent US8895585B2, “Nicotinamide derivative or salt thereof” (FUJIFILM Corporation, priority 2010, dated 2014).

In this assay the target is glutathione S-transferase (GST)-fused full-length human Syk protein (Homo sapiens, UniProt P43405). The assay can be described thus: Syk enzyme assay. The settings on record: read-out: IC50 of Syk-inhibitory activity, Test Example 1. As for the experimental part: A glutathione S-transferase (GST)-fused full-length human Syk protein (Carna Biosciences), which had been generated using a Baculovirus expression system, was used in the Syk enzyme assay.
15 μl of a reaction solution (1.2 ng Syk, 20 mM HEPES, 10 mM MgCl2, 50 mM NaCl, 2 mM DTT, 0.05% BSA, pH 7.0) containing a Syk protein and a predetermined concentration of a test compound was shaken for 2 minutes, and it was then left at rest at room temperature for 13 minutes. Thereafter, 5 μl of Biotin-EDPDYEWPSA-NH2 (final concentration: 0.4 μM) serving as a substrate peptide and 5 μl of ATP (final concentration: 27 μM) were added to the reaction solution, and the obtained mixture was then shaken for 2 minutes. The reaction solution was further left at rest at room temperature for 40 minutes, so as to carry out an enzyme reaction.
Thereafter, 50 μl of a reaction termination solution [5 μg/ml Streptavidin, 0.18 μg/ml PT66-K, 30 mM HEPES (pH 7.0), 150 mM KF, 75 mM EDTA, 0.15% BSA, 0.075% Tween20], which contained Streptavidin-Xlent (Cisbio) and Mab PT66-K (Cisbio), was added to the reaction solution to terminate the enzyme reaction. […] Thereafter, using EnVision (PerkinElmer), the time-resolved fluorescence was measured at 615 nm and 665 nm, so that the phosphorylation of the substrate peptide was measured. […]

The structures appear in SMILES notation. The structures given here were assigned with low confidence; some may be wrong.

On to `NCCNc1nc(Nc2cccc(C(=O)Nc3ccccc3)c2)c(C(N)=O)cc1F` [Example 30, 6-(2-aminoethylamino)-2-(3-(anilinocarbonyl)phenylamino)-5-fluoronicotinamide], for which the IC50 (as a rule, the concentration needed to halve the response being measured) was in the range of 0.01 to 0.05 µM.

For `NCCNc1nc(Nc2cccc(C(=O)NC3CCCCC3)c2)c(C(N)=O)cc1F` [Example 31-3, 6-((2-aminoethyl)amino)-2-((3-(cyclohexylaminocarbonyl)phenyl)amino)-5-fluoronicotinamide], the IC50 lay in the range of 0.1 to 1 µM.
